Results taken from PubChem BioAssay AID1347076 (National Center for Advancing Translational Sciences (NCATS), 2019).
The whole screen tested about 400,000 compounds, of which about 13,000 (3.2%) were called active. Inconclusive results, whose numbers are uncertain, are shown with a selection of clear calls. Calls follow the shape of the dose curve; as a rule, active = well fitted cell-killing curve with a large enough effect; inconclusive = small, poorly fitted or top-dose-only effect, or effect the other way; inactive = flat fitted curve, though single readings scatter. Potencies of inconclusive entries are doubtful fits and often do not repeat.

Assay: qHTS assay for MDR1-selective chemotherapeutics: Primary screen using the drug-selected MDR subline cells KB-V1; also: nearly all actives have a fitted effect of over 60% in size
Conditions: KB-V1 MDR cells viability, CellTiter-Glo, 72 h; activity change, negative = cytotoxicity: at 46.1 µM (top of the series)
Method in brief: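 Readout: CellTiter-Glo luminescence, 10 min after addition. Cells: KB-V1 MDR subline, 72 h at 37 degrees C with compound. Analysis: corrected, normalized data fitted to concentration-effect curves.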
% is scaled to controls: 0 for no effect and ±100 for the full control effect; potency is read from the fitted curve at half-maximal effect.

Compound	activity change, negative = cytotoxicity	Potency
CCn1c(=O)c2c(nc3n2CCN3c2ccc(OC)cc2)n(C)c1=O	inactive: -32%	
Cc1cccc(N2CCN(CC(O)COc3ccc(Cl)cc3)CC2)c1 (centres undefined)	inactive: -7.61%	
COc1ccc(CCN(C)C(=O)C2CCN(Cc3ccccc3)CC2)cc1OC		inconclusive: 14.6 µM [cytotoxic, partial curve, poor fit]
CC(=O)Nc1ccc(C(=O)NCCCOC(C)C)cc1		inconclusive: 20.6 µM [rising, single point]
c1ccc(-c2nnc3nc(N4CCCCC4)nc(N4CCCCC4)n23)cc1		active: 18.4 µM
CCCCNC(=S)N/N=C/c1ccccc1F		inconclusive: 16.4 µM [cytotoxic, single point]
Cc1cc(C(=O)COc2cccc3cccnc23)c(C)n1C		active: 16.4 µM
CC1CN(C(=O)COc2ccc3ccccc3c2)CC(C)O1 (centres undefined)		inconclusive: 0.731 µM [cytotoxic, full curve, poor fit]
O=C(CSc1nc(N2CCOCC2)nc(N2CCOCC2)n1)Nc1cccc(C(F)(F)F)c1	inactive: -28.7%	
Cc1ccc(CNS(=O)(=O)c2ccc(C(=O)N(C)C)s2)cc1		inconclusive: 25.9 µM [rising, single point]
CCOc1ccc(NC(=O)Cn2c(=O)n(Cc3ccc4c(c3)OCO4)c(=O)c3ccc(C(=O)NC4CCCCC4)cc32)cc1	inconclusive: 22.5%	
COc1cccc2oc3ccc(C#Cc4ccccn4)cc3c(=O)c12		inconclusive: 32.6 µM [cytotoxic, single point]
COc1ccc(Nc2c3c(nc4ccccc24)CCC3)cc1Cl		inconclusive: 16.4 µM [cytotoxic, partial curve, poor fit]
CCOc1ccc(Oc2ccccc2NC(=O)CCc2nc3ccccc3c(=O)[nH]2)cc1		inconclusive: 11.6 µM [cytotoxic, partial curve, poor fit]
O=C(Nc1c2c(nn1-c1ccccc1)CS(=O)(=O)C2)c1ccco1		inconclusive: 14.6 µM [rising, single point]
CCOc1ccccc1/C=C\c1nc(O)c([N+](=O)[O-])c(=O)[nH]1		inconclusive: 23.1 µM [rising, single point]
COc1ccccc1CN(Cc1nc2ccccc2c(=O)[nH]1)S(=O)(=O)c1ccc2ccccc2c1		active: 13 µM
CCN(Cc1ccncc1)C(=O)c1cc(COc2c(C)cccc2C)on1		inconclusive: 5.8 µM [cytotoxic, partial curve, poor fit]
Cc1csc(NC(=O)c2cccc(Cn3nc(C)c(Br)c3C)c2)n1		inconclusive: 29.1 µM [cytotoxic, single point]
CCc1nnc(NC(=O)c2ccc(S(=O)(=O)NCC(C)C)cc2)s1		inconclusive: 29.1 µM [cytotoxic, single point]
Cc1cccc(C)c1OCC(O)CNS(=O)(=O)c1ccccc1C(=O)N1CCCCC1 (centres undefined)		active: 4.61 µM
O=C(CNCCC1=CCCCC1)Nc1ccc(N2CCCCCC2)cc1		inconclusive: 29.1 µM [cytotoxic, single point]

Two records picked at random from the list so far, as already listed:
Compound	activity change, negative = cytotoxicity	Potency
Cc1cccc(N2CCN(CC(O)COc3ccc(Cl)cc3)CC2)c1 (centres undefined)	inactive: -7.61%	
CCCCNC(=S)N/N=C/c1ccccc1F		inconclusive: 16.4 µM [cytotoxic, single point]

Following part:

Compound	activity change, negative = cytotoxicity	Potency
Cc1ccc(C(=O)NC(=S)N2CCN(c3ccc([N+](=O)[O-])cc3)CC2)cc1		active: 23.1 µM
Cc1cc(C)c2sc(N(CCN(C)C)C(=O)c3c(F)cccc3F)nc2c1		inconclusive: 14.6 µM [cytotoxic, single point]
COC(=O)c1cccc(-c2ccc(C(c3c(C)[nH][nH]c3=O)c3c(C)[nH][nH]c3=O)o2)c1		inconclusive: 25.9 µM [cytotoxic, single point]
C/C(CC(=O)Nc1cccc(F)c1)=N\NC(=O)C(=O)NC1CCCCC1		inconclusive: 18.4 µM [rising, single point]
CCOCCn1c(CN2CCN(C)CC2)nc2c1c(=O)n(C)c(=O)n2C	inactive: 18.5%	
CCOC(=O)C1CCCN(C(=O)CN2C(=O)c3ccccc3C2=O)C1 (centres undefined)	inactive: 1.28%	
O=C(c1cnn(C(=O)CN2CCCC2=O)c1)c1ccccc1O		inconclusive: 29.1 µM [cytotoxic, partial curve, poor fit]
CC(NC(=O)NCC1CCCO1)(C(F)(F)F)C(F)(F)F (centres undefined)	inactive: 1.49%	
CC1=CC(C)(C)N(C(=O)CN2C(=O)c3ccccc3C2=O)c2ccccc21		inconclusive: 29.1 µM [cytotoxic, single point]
COc1ccccc1N/C(N)=N/c1nc(C(F)(F)F)cc(=O)[nH]1		inconclusive: 29.1 µM [cytotoxic, single point]
O=C(CCNc1ccc(Br)cc1)c1cccc([N+](=O)[O-])c1	inactive: 0%	
O=c1c2cc(N3CCOCC3)ccc2[nH]c(=S)n1CCCN1CCCC1		inconclusive: 29.1 µM [cytotoxic, partial curve, poor fit]
CCN(Cc1nc2cc(Cl)ccc2c(=O)[nH]1)C(=O)c1nn(C)c(=O)c2ccccc12		active: 18.4 µM
CC(=O)Oc1cc2c(c3ccccc13)CCC2=O	inactive: -11.2%	
COCCSc1nc2c([nH]c3ccccc32)c(=O)n1-c1ccc(OC)c(OC)c1	inactive: -8.04%	
O=C(Nc1cccc(-c2nc3ccccc3[nH]2)c1)c1ccc(C(=O)Nc2cccc(-c3nc4ccccc4[nH]3)c2)cc1		inconclusive: 20.6 µM [rising, single point]
CC1CCCCN1Cc1c(O)ccc2c(=O)c(-c3ccccc3Cl)c(C(F)(F)F)oc12 (centres undefined)		inconclusive: 14.6 µM [cytotoxic, partial curve, poor fit]
Nc1ccc2nc(SCC(=O)N3CCN(c4ccccc4)CC3)sc2c1		inconclusive: 18.4 µM [cytotoxic, partial curve, poor fit]
Cc1cccc(Nc2nnc(SCC(=O)Nc3ccccc3[N+](=O)[O-])s2)c1C		inconclusive: 16.4 µM [cytotoxic, partial curve]
Cc1ccc(C)c(OCC(=O)NCC(c2ccco2)N2CCCCC2)c1 (centres undefined)		inconclusive: 11.6 µM [cytotoxic, partial curve, poor fit]
O=C(Nc1ccc(S(=O)(=O)N2CCC(c3nc4ccccc4s3)CC2)cc1)c1ccccc1	inactive: 16%	
COc1cc(CNCCN2CCOCC2)ccc1OCc1ccc(Cl)cc1Cl		inconclusive: 25.9 µM [cytotoxic, single point]
